# Reference: patent US6015801A, “Method for inhibiting bone resorption” (Merck & Co., Inc., priority 1998, dated 2000)
# System: canine esophagus
# Experiment: Esophageal irritation potential in a dog model (infusion into esophagus, histopathology)
# Procedure: The esophageal irritation potential of the bisphosphonates is evaluated using a dog model.
# The following solutions are prepared:
# (1) simulated gastric juice (pH about 2), i.e. the control solution.
# (5) simulated gastric juice (pH about 2) containing about 0.20 mg/mL of risedronate sodium on a risedronic acid active basis.
# (6) simulated gastric juice (pH about 2) containing about 4.0 mg/mL of tiludronate disodium on a tiludronic acid active basis.
# The pH of the resulting solution is measured and if necessary is adjusted to about 2 using 1.0 M HCl (aqueous) or 1.0 M NaOH (aqueous).
# The animals used in the experiments are anesthetized and administered about 50 mL of the appropriate solution over about 30 minutes by infusion into the esophagus using an infusion pump and a rubber catheter. The following treatment experiments are run:
# Group 1: This control group contains four animals. Each animal is administered a dosage of about 50 mL of simulated gastric juice [solution (1)] on each of five consecutive days. The animals are sacrificed immediately after the last dose is administered. […]
# Group 7: This group contains eight animals. Each animal is administered a dosage of about 50 mL of simulated gastric juice containing about 0.20 mg/mL of risedronate [solution (5)] on each of five consecutive days. The animals are sacrificed immediately after the last dose is administered.
# Group 8: This group contains four animals. Each animal is administered a dosage of about 50 mL of simulated gastric juice containing about 4.0 mg/mL of tiludronate [solution (6)] on each of five consecutive days. The animals are sacrificed immediately after the last dose is administered.
# The esophagus from each sacrificed animal is removed and prepared for histopathology using standard techniques by embedding the tissue in paraffin, staining with hematoxylin and eosin. The sections are examined microscopically.
# [1] = single high concentration dosage (Groups 3 and 4)
smiles,measurement,setting,value
"NCCCC(O)(P(=O)(O)O)P(=O)(O)O [Alendronate, 4-amino-1-hydroxybutylidene-1,1-bisphosphonic acid monosodium trihydrate]",Esophageal irritation versus low concentration dosages on consecutive days (Group 2),high concentration on a weekly basis (Group 5),considerably less esophageal irritation
same,Esophageal irritation versus control Group 1,[1],comparable to control
same,Esophageal irritation versus low concentration dosages on consecutive days (Group 2),[1],considerably less esophageal irritation
same,Esophageal irritation versus low concentration dosages on consecutive days (Group 2),twice-weekly basis (Group 6),considerably less esophageal irritation
